US5264372A (Amylin Pharmaceuticals, Inc., priority 1991, dated 1993)
Several values for one entry are separate records, joined by “and”; a condition that tells them apart may be missing. Identical values can stand only once.

System: ^125 I-h CGRP binding sites in nucleus accumbens and surrounding regions
Assay: Competition for 125I-h CGRP binding to nucleus accumbens area (basal forebrain) membranes
Parameters: species or system rat
Conditions: in brackets after IC50
Source text: From the ventral surface of rat brains, cuts were made rostral to the hypothalamus bounded laterally by the olfactory tracts and extending at a 45 angle medially from these tracts. This tissue, containing the nucleus accumbens and surrounding regions, was collected and weighed, and membranes prepared as described in Example I. The region from which tissue was collected as described above is here termed the basal forebrain, and includes the nucleus accumbens and surrounding regions.

For CC(C)C[C@H](NC(=O)[C@H](CC(N)=O)NC(=O)[C@H](CC(N)=O)NC(=O)[C@H](CO)NC(=O)[C@H](CO)NC(=O)[C@H](CCCNC(=N)N)NC(=O)[C@@H](NC(=O)[C@H](CC(C)C)NC(=O)[C@H](Cc1ccccc1)NC(=O)[C@H](CC(N)=O)NC(=O)[C@H](C)NC(=O)[C@H](CC(C)C)NC(=O)[C@H](CCCNC(=N)N)NC(=O)[C@H](CCC(N)=O)NC(=O)[C@@H](NC(=O)[C@H](C)NC(=O)[C@@H]1CSSC[C@H](NC(=O)[C@@H](N)CCCCN)C(=O)N[C@@H](CC(N)=O)C(=O)N[C@@H]([C@@H](C)O)C(=O)N[C@@H](C)C(=O)N[C@@H]([C@@H](C)O)C(=O)N1)[C@@H](C)O)C(C)C)C(=O)NCC(=O)N1CCC[C@H]1C(=O)N[C@H](C(=O)N[C@@H](CC(C)C)C(=O)N1CCC[C@H]1C(=O)N1CCC[C@H]1C(=O)N[C@H](C(=O)N[C@@H](CC(N)=O)C(=O)N[C@H](C(=O)NCC(=O)N[C@@H](CO)C(=O)N[C@@H](CC(N)=O)C(=O)N[C@H](C(=O)N[C@@H](Cc1ccc(O)cc1)C(N)=O)[C@@H](C)O)C(C)C)[C@@H](C)O)C(C)C [r amylin, rat amylin], which “Share of sites in 2 site fit” value is on record?
The value was 57% and 46%.
